Out of some 59,000 compounds screened, about 35 (0.06%) were called active. This list was built around the results that the source calls inconclusive (neither active nor inactive); the mix of calls is not that of the screen. Cut-off read from the data, not from the text of the source: active = max dye-equivalent concentration above about 10 nM; inconclusive = between about 1.1 nM and that limit; inactive = weaker than that.
Assay: qHTS Assay for Spectroscopic Profiling in Texas Red Spectral Region
Conditions: Compound fluorescence, Texas Red channel, 547/618 nm; active compounds read high
In short: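 Texas Red-region profiling: compounds in 100 mM Tris pH 8.0 were read at 547/618 nm after 15 min at room temperature. Intensities were normalized against a six-point Texas Red standard series to give dye-equivalent concentration.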

Q: For CCOc1ccccc1NC1=NCC(=O)N1Cc1ccc(F)cc1, which max dye-equivalent concentration is on record?
A: The max dye-equivalent concentration was inconclusive: 1.3 nM.

Q: For COCCOC(=O)/C=C1/NC(=O)CS1, which max dye-equivalent concentration is on record?
A: The max dye-equivalent concentration was inconclusive: 1.2 nM.

Q: Which max dye-equivalent concentration does the source give for CC1=C(C(=O)N2CCOCC2)C(c2ccsc2)C2=C(CCCC2=O)N1 (stereo not given) here?
A: The max dye-equivalent concentration was inconclusive: 1.6 nM.

Q: With O=C(Nc1ccc(Cl)cc1C(=O)NCCN1CCOCC1)c1ccco1 as the compound, how does the max dye-equivalent concentration read?
A: Its max dye-equivalent concentration is inconclusive: 1.1 nM.

Q: With CCOc1ccc(C2C(C(=O)c3ccc(C)o3)=C(O)C(=O)N2CCCN(CC)CC)cc1 (stereo not given) as the compound, how does the max dye-equivalent concentration read?
A: The max dye-equivalent concentration was inconclusive: 1.1 nM.

Q: Which max dye-equivalent concentration does the source give for CNC(=O)[C@@H]1O[C@@H](n2cnc3c(NCc4ccc(N)cc4)ncnc32)[C@@H](O)[C@H]1O here?
A: Its max dye-equivalent concentration is “inactive”.

Q: Which max dye-equivalent concentration does the source give for Cc1noc(C)c1C(=O)N1CCC[C@@]2(CCN(C(=O)Nc3ccccc3)C2)C1 here?
A: Its max dye-equivalent concentration is “inactive”.

Q: Which max dye-equivalent concentration does the source give for O=C(c1cccs1)N(Cc1cccc(Cl)c1)C1CCS(=O)(=O)C1 (stereo not given) here?
A: Its max dye-equivalent concentration is inconclusive: 1.5 nM.

Q: Which max dye-equivalent concentration does the source give for COc1ccc(CN2C(=O)c3ccccc3C2C(=O)NCC2CCCO2)c(OC)c1 (stereo not given) here?
A: The max dye-equivalent concentration was inconclusive: 1.3 nM.

Q: With CCOc1ccc(CCNC(=O)C2CCN(c3ccc(N4CCOCC4)nn3)CC2)cc1OCC as the compound, how does the max dye-equivalent concentration read?
A: Its max dye-equivalent concentration is “inactive”.

Q: With O=C(O)c1ccc2c(c1)NC(=O)C(N1CCCC1)S2 (stereo not given) as the compound, how does the max dye-equivalent concentration read?
A: Its max dye-equivalent concentration is “inactive”.

Q: With CC1(C)O[C@@H]2C[C@H]3[C@H]4C[C@H](F)C5=CC(=O)C=C[C@@]5(C)[C@@H]4[C@H](O)C[C@]3(C)[C@]2(C(=O)CO)O1 as the compound, how does the max dye-equivalent concentration read?
A: The max dye-equivalent concentration was inconclusive: 1.2 nM.

Q: Which max dye-equivalent concentration does the source give for CCCn1c(SCC(=O)N2CCCc3ccccc32)nc2c1c(=O)n(C)c(=O)n2C here?
A: Its max dye-equivalent concentration is inconclusive: 1.2 nM.

Q: For O=C(Nc1ccc(N2CCOCC2)cc1)c1cnsn1, which max dye-equivalent concentration is on record?
A: The max dye-equivalent concentration was inconclusive: 1.5 nM.

Q: For N=c1c(C(=O)NCc2ccc(F)cc2)cc2c(=O)n3ccccc3nc2n1Cc1ccco1, which max dye-equivalent concentration is on record?
A: The max dye-equivalent concentration was inconclusive: 1.8 nM.

Q: With COC(=O)[C@](C)(N)Cc1ccc(O)cc1 as the compound, how does the max dye-equivalent concentration read?
A: Its max dye-equivalent concentration is “inactive”.

Q: For CCn1c(SCC(=O)Nc2cc(C)on2)nnc1-c1cccs1, which max dye-equivalent concentration is on record?
A: Its max dye-equivalent concentration is inconclusive: 1.3 nM.

Q: For CCOc1ccccc1C1C(C#N)=C(N)SC(N)=C1C#N, which max dye-equivalent concentration is on record?
A: The max dye-equivalent concentration was “inactive”.

Q: With Cc1ccc(O)c(C(=O)c2cnn(C(=O)Cc3csc(C)n3)c2)c1 as the compound, how does the max dye-equivalent concentration read?
A: The max dye-equivalent concentration was inconclusive: 1.6 nM.

Q: For CCCC12CN3CC(C)(CN(C1)C3c1ccc(OC(C)C)cc1)C2=O (stereo not given), which max dye-equivalent concentration is on record?
A: Its max dye-equivalent concentration is inconclusive: 2.8 nM.

Q: Which max dye-equivalent concentration does the source give for COc1ccccc1NC(=O)Cc1noc(CSc2nnc(C)s2)n1 here?
A: Its max dye-equivalent concentration is inconclusive: 2.4 nM.

Q: With O=c1c2c3nc4ccccc4nc3n(CCN3CCOCC3)c2ncn1CCN1CCOCC1 as the compound, how does the max dye-equivalent concentration read?
A: The max dye-equivalent concentration was inconclusive: 1.4 nM.

Q: Which max dye-equivalent concentration does the source give for Cc1cc(C)n(C(=O)C23CC4CC(CC(C4)C2)C3)n1 here?
A: Its max dye-equivalent concentration is inconclusive: 1.2 nM.

Q: Which max dye-equivalent concentration does the source give for COc1ccc(CNc2nc(-c3c(C)noc3C)nc3ccccc23)c(OC)c1 here?
A: The max dye-equivalent concentration was inconclusive: 1.7 nM.

Q: For Cc1noc(C)c1S(=O)(=O)N1CCC(Cc2ccccc2)CC1, which max dye-equivalent concentration is on record?
A: Its max dye-equivalent concentration is “inactive”.

Q: With COC(=O)c1[nH]c2ccc(C)cc2c1NC(=O)CN1CCC(C)CC1 as the compound, how does the max dye-equivalent concentration read?
A: The max dye-equivalent concentration was inconclusive: 2.4 nM.

Q: With CC(c1ccccc1)C1CC(=O)N(CC(=O)O)C1=O (stereo not given) as the compound, how does the max dye-equivalent concentration read?
A: The max dye-equivalent concentration was inconclusive: 1.7 nM.

Q: For CC12CCC(c3c(C(=O)Nc4nccs4)nn(-c4ccccc4)c31)C2(C)C (stereo not given), which max dye-equivalent concentration is on record?
A: Its max dye-equivalent concentration is inconclusive: 2 nM.

Q: With COc1cccc(C(=O)Cn2c(=N)n(C)c3ccccc32)c1 as the compound, how does the max dye-equivalent concentration read?
A: The max dye-equivalent concentration was inconclusive: 2 nM.

Q: With O=C(CCSc1nc(-c2ccco2)cc(C(F)(F)F)n1)NCC1CCCO1 (stereo not given) as the compound, how does the max dye-equivalent concentration read?
A: The max dye-equivalent concentration was inconclusive: 2.1 nM.

Q: For CCOc1ccc(Cc2nccc3cc(OCC)c(OCC)cc23)cc1OCC, which max dye-equivalent concentration is on record?
A: Its max dye-equivalent concentration is inconclusive: 1.5 nM.

Q: For COC(=O)Nc1c(-c2ccccc2)nc2ccccn12, which max dye-equivalent concentration is on record?
A: Its max dye-equivalent concentration is inconclusive: 1.3 nM.

Q: With O=C(COc1nnnc2ccccc12)N1CCCc2ccccc21 as the compound, how does the max dye-equivalent concentration read?
A: The max dye-equivalent concentration was inconclusive: 1.7 nM.

Q: Which max dye-equivalent concentration does the source give for COc1ccccc1NC(=O)CSc1nc2nc(C)cc(C)c2c(=O)[nH]1 here?
A: The max dye-equivalent concentration was inconclusive: 1.8 nM.

Q: For Cc1noc(C)c1CSc1nnc2n(-c3ccccc3)c(=O)c3ccccc3n12, which max dye-equivalent concentration is on record?
A: The max dye-equivalent concentration was inconclusive: 1.6 nM.

Q: With COc1ccc2c(c1)C(C)CC(C)(C)N2C(=O)CSc1ncn[nH]1 (stereo not given) as the compound, how does the max dye-equivalent concentration read?
A: Its max dye-equivalent concentration is inconclusive: 1.2 nM.

Q: With O=C(Nc1nnc(CC(=O)N2CCOCC2)s1)c1cccs1 as the compound, how does the max dye-equivalent concentration read?
A: The max dye-equivalent concentration was inconclusive: 1.1 nM.

Q: With CCCCOC(=O)CSc1nc2c(cc1C#N)C(=O)CC(C)(C)C2 as the compound, how does the max dye-equivalent concentration read?
A: The max dye-equivalent concentration was inconclusive: 1.2 nM.

Q: Which max dye-equivalent concentration does the source give for CCc1c(C(=O)Nc2ccncc2)csc1C here?
A: The max dye-equivalent concentration was inconclusive: 1.5 nM.

Q: For O=C(Cn1nnc(-c2ccc(CN3CCOCC3)cc2)n1)NC1CCCCC1, which max dye-equivalent concentration is on record?
A: The max dye-equivalent concentration was inconclusive: 1.3 nM.

Q: For Cc1cc2c(c(=O)n1CCN(C)C)C(c1ccc(Cl)cc1)C(C#N)=C(N)O2 (stereo not given), which max dye-equivalent concentration is on record?
A: Its max dye-equivalent concentration is inconclusive: 1.2 nM.

Q: Which max dye-equivalent concentration does the source give for Cc1cc(=O)n2c(n1)OC(CO)C2 (stereo not given) here?
A: Its max dye-equivalent concentration is inconclusive: 2.1 nM.

Q: With COc1cccc(NC(=O)N(Cc2ccco2)C(C)c2cccs2)c1 (stereo not given) as the compound, how does the max dye-equivalent concentration read?
A: The max dye-equivalent concentration was inconclusive: 1.1 nM.

Q: For COc1cc2[nH]c(=S)n(NC(=O)CC(C)C)c(=O)c2cc1OC, which max dye-equivalent concentration is on record?
A: The max dye-equivalent concentration was inconclusive: 1.1 nM.

Q: With N#Cc1nc(-c2ccco2)oc1NCCN1CCOCC1 as the compound, how does the max dye-equivalent concentration read?
A: Its max dye-equivalent concentration is inconclusive: 1.2 nM.

Q: For O=C(O)CCC(=O)c1ccc2c(c1)OCCCO2, which max dye-equivalent concentration is on record?
A: The max dye-equivalent concentration was inconclusive: 1.2 nM.

Q: Which max dye-equivalent concentration does the source give for CCn1cc(C(=O)NCc2ccco2)c(=O)c2cc(S(=O)(=O)N3CCCCCC3)ccc21 here?
A: Its max dye-equivalent concentration is “inactive”.

Q: Which max dye-equivalent concentration does the source give for O=C(CSc1nnc(-c2ccco2)n1Cc1ccccc1)c1ccccc1 here?
A: Its max dye-equivalent concentration is inconclusive: 1.2 nM.

Q: With CCOC(=O)N1CCC(Nc2ncnc3c2cnn3-c2ccccc2)CC1 as the compound, how does the max dye-equivalent concentration read?
A: The max dye-equivalent concentration was inconclusive: 1.8 nM.

Q: With COc1ccc(S(=O)(=O)N2CCCC2C(=O)NCc2cccs2)cc1 (stereo not given) as the compound, how does the max dye-equivalent concentration read?
A: The max dye-equivalent concentration was inconclusive: 1.6 nM.

Q: With O=C(Nn1cnnc1)c1cc2c(s1)CCCC2 as the compound, how does the max dye-equivalent concentration read?
A: Its max dye-equivalent concentration is inconclusive: 2.6 nM.

Q: Which max dye-equivalent concentration does the source give for COCC(=O)N(Cc1cc2ccc(C)cc2[nH]c1=O)c1ccc(OC)cc1 here?
A: The max dye-equivalent concentration was inconclusive: 1.1 nM.

Q: With O=C(NCc1ccco1)C(c1cccnc1)N(C(=O)Cn1nnc2ccccc21)c1ccccc1 (stereo not given) as the compound, how does the max dye-equivalent concentration read?
A: Its max dye-equivalent concentration is inconclusive: 1.9 nM.

Q: For O=S(=O)(O)c1cc(N=[N+]([O-])c2cc(S(=O)(=O)O)c3ccccc3c2)cc2ccccc12, which max dye-equivalent concentration is on record?
A: The max dye-equivalent concentration was inconclusive: 1.4 nM.

Q: With Cc1cnc(CNc2ccnc(-c3cccc(NS(C)(=O)=O)c3)n2)cn1 as the compound, how does the max dye-equivalent concentration read?
A: Its max dye-equivalent concentration is inconclusive: 1.2 nM.

From PubChem BioAssay AID587 (National Center for Advancing Translational Sciences (NCATS), 2007)
